{"source": "PubChem BioAssay AID1347075", "about": "(National Center for Advancing Translational Sciences (NCATS), 2019)", "note": "The whole screen tested about 400,000 compounds, of which about 5,500 (1.4%) were called active. The inconclusive results got no clear call from the source; some entries with a clear call stand among them for comparison. Calls follow the shape of the dose curve; as a rule, active = well fitted cell-killing curve with a large enough effect; inconclusive = small, poorly fitted or top-dose-only effect, or effect the other way; inactive = flat fitted curve, though single readings scatter. A potency beside an inconclusive call is a rough fit, not a confirmed value."}
{"experiment": "qHTS assay for MDR1-selective chemotherapeutics: Primary screen using the parental adenocarcinoma cell KB-3-1; also: nearly all actives have a fitted effect of over 60% in size; also: potency is read from the fitted curve at half-maximal effect; as to activity change, negative = cytotoxic: % is scaled to controls: 0 for no effect and ±100 for the full control effect", "conditions": "KB-3-1 viability, CellTiter-Glo ATP luminescence, 72 h; activity change, negative = cytotoxic: at 46.1 µM (top of the series)", "summary_of_the_method": "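Cytotoxicity measured as CellTiter-Glo luminescence after 72 h at 37 C. Compound titrations were pinned onto drug-naive KB-3-1 parental adenocarcinoma cells grown in DMEM with 10% FBS, and normalized data fitted to concentration-response curves.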"}
{"compound": "O=C(CCc1nnc(-c2ccc3c(c2)OCO3)o1)NC(c1cccnc1)C(F)(F)F", "note": "(configuration not stated)", "Potency": "inactive"}
{"compound": "COc1ccc(S(=O)(=O)c2c(Nc3ccc(F)cc3)sc(C(=O)c3ccc4c(c3)OCO4)c2N)cc1", "Potency": "inactive"}
{"compound": "CN(NS(=O)(=O)c1ccc(F)cc1)c1ncc(C(F)(F)F)cc1Cl", "Potency": "inactive"}
{"compound": "Cc1ccsc1CNc1ncnc2ccc(-c3c(C)noc3C)cc12", "Potency": "inconclusive: 29.1 µM [cytotoxic, single point]"}
{"compound": "COc1ccc(-n2cc3ccc([N+](=O)[O-])cc3n2)cc1", "Potency": "active: 5.8 µM"}
{"compound": "CC(Oc1ccc(Cl)cc1)C(=O)NNC(=S)NC(=O)c1ccco1", "note": "(configuration not stated)", "Potency": "inconclusive: 18.4 µM [cytotoxic, single point]"}
{"compound": "COc1ccc(Oc2c(C(F)(F)F)oc3cc(OCC(=O)O)ccc3c2=O)cc1", "Potency": "inactive"}
{"compound": "COCCc1nn2c(=O)cc(COC(=O)COc3ccc(F)cc3)nc2s1", "Potency": "inconclusive: 23.1 µM [rising, partial curve, poor fit]"}
{"compound": "Cc1onc(-c2ccccc2)c1C(=O)N/N=C/c1cc2c(cc1Cl)OCO2", "activity change, negative = cytotoxic": "inconclusive: -8.49%"}
{"compound": "CCOC(=O)C1(CCOc2ccccc2)CCN(Cc2ccc(F)c(OC)c2)CC1", "Potency": "inactive"}
{"compound": "CCCN(Cc1cc2cccc(C)c2[nH]c1=O)C(=O)c1cccc(OC)c1", "Potency": "inactive"}
{"compound": "CC[C@@]12C(=O)N(c3cccc(Br)c3)C(=O)N1[C@H](c1ccc(Br)cc1)[C@@H]1C(=O)N(C(C)(C)C)C(=O)[C@@H]12", "Potency": "inconclusive: 18.4 µM [cytotoxic, single point]"}
{"compound": "CCCOC(=O)c1c(NC(=O)C2c3ccccc3Oc3ccccc32)sc2c1CCC(C)C2", "note": "(configuration not stated)", "Potency": "inactive"}
{"compound": "O=C(COC(=O)CNS(=O)(=O)c1c(Cl)cccc1Cl)Nc1cccnc1Cl", "Potency": "inactive"}
{"compound": "O=C(c1ccccc1)c1nc[nH]c1C(=O)Nc1ccccc1", "Potency": "inconclusive: 29.1 µM [cytotoxic, single point]"}
{"compound": "COc1ccc(CN(C)CC(=O)Nc2ccccc2C(=O)NC2CC2)cc1F", "Potency": "inactive"}
{"compound": "CNC(=S)N/N=C/c1ccccc1Cl", "Potency": "inactive"}
{"compound": "COc1ccc(C2C(O)C(c3c[nH]c4ccccc34)=NN2C(=O)CCl)cc1", "note": "(configuration not stated)", "Potency": "inconclusive: 18.4 µM [cytotoxic, single point]"}
{"compound": "O=C(NC(=S)Nc1cc([N+](=O)[O-])ccc1O)c1cccnc1", "Potency": "inconclusive: 25.9 µM [cytotoxic, single point]"}
{"compound": "c1coc(-c2nnc(SCc3nc4ccccc4[nH]3)o2)c1", "Potency": "inconclusive: 16.4 µM [rising, single point]"}
{"compound": "CCOC(=O)N1CCC(N2CC34C=CC(O3)C(C(=O)Nc3ccc(OCC)cc3)C4C2=O)CC1", "note": "(configuration not stated)", "Potency": "inconclusive: 29.1 µM [cytotoxic, single point]"}
{"compound": "CCCCCOC(=O)CSc1ncnc2c1sc1nc(N3CCOCC3)c3c(c12)CCCC3", "Potency": "inactive"}
{"compound": "COc1ccc(NC(=O)c2ccc(C#N)cc2)cc1NS(=O)(=O)c1ccc(F)cc1", "Potency": "inactive"}
{"compound": "Nc1nnnn1CC(=O)N/N=C/c1ccccn1", "Potency": "inactive"}
{"compound": "Cn1c(=O)c2c(-c3ccccc3Cl)n(-c3cc(Cl)ccc3O)cc2n(C)c1=O", "Potency": "inactive"}
{"compound": "COCCn1ccc2c(OCC(=O)Nc3cccc(OC)c3)cccc2c1=O", "Potency": "inactive"}
{"compound": "Cc1ccc(Cl)cc1N1CCN(C(=O)COc2ccc(S(=O)(=O)NC(C)C)cc2)CC1", "Potency": "inconclusive: 16.4 µM [cytotoxic, single point]"}
{"compound": "O=C(NCc1ccc2c(c1)OCO2)c1cc([N+](=O)[O-])ccc1N1CCCCC1", "Potency": "active: 2.06 µM"}
{"compound": "COc1ccc(Nc2ncc(C(=O)N3CCN(c4cccc(Cl)c4)CC3)c3ccccc23)cc1", "Potency": "inconclusive: 20.6 µM [cytotoxic, single point]"}
{"compound": "CCOc1ccc(NS(=O)(=O)c2cc3c(cc2C)N(C)CCO3)cc1", "Potency": "inconclusive: 11.6 µM [cytotoxic, partial curve, poor fit]"}
{"compound": "Cc1ccc(CN(Cc2cccnc2)C(=S)Nc2cccc(Cl)c2C)cc1", "Potency": "inconclusive: 20.6 µM [cytotoxic, single point]"}
{"compound": "O=C(C[n+]1c(Cl)ccc2ccccc21)c1ccc2ccccc2c1", "Potency": "inconclusive: 6.51 µM [cytotoxic, partial curve, poor fit]"}
{"compound": "COc1ccc(CNC(=O)Cc2ccc(NC(=O)C3=C(C)OCCS3)cc2)cc1", "Potency": "active: 1.03 µM"}
{"compound": "COc1cc(/C=C/C(=O)N2CCOCC2)ccc1OCc1ccccc1", "Potency": "inconclusive: 18.4 µM [cytotoxic, partial curve, poor fit]"}
{"compound": "Cc1ccc(C(=O)N/N=C/C2=Cc3ccccc3OC2C)cc1", "note": "(configuration not stated)", "Potency": "inactive"}
{"compound": "CCOC(=O)N1CCN(C(=O)COc2ccc(S(=O)(=O)Nc3ccc(OCC)cc3)cc2)CC1", "Potency": "active: 20.6 µM"}
{"compound": "CCOC(=O)C1C(=O)C(C(C)=O)C(=O)CC1CC(C)SCC", "note": "(configuration not stated)", "Potency": "inactive"}
{"compound": "O=C(COC(=O)C1COc2ccccc2O1)Nc1cccc(S(=O)(=O)N2CCCCC2)c1", "note": "(configuration not stated)", "Potency": "inactive"}
{"compound": "O=C(Nc1ccc(Cn2nnc3ccccc32)cc1)c1ccco1", "Potency": "active: 16.4 µM"}
{"compound": "O=C(Nc1ccccc1O)c1c(O)c2c([nH]c1=O)CCCC2", "Potency": "inactive"}
{"compound": "OC(C#Cc1ccccn1)c1cccs1", "note": "(configuration not stated)", "Potency": "inconclusive: 29.1 µM [cytotoxic, single point]"}
{"compound": "O=c1c(Br)ccc(Br)cc1Br", "Potency": "active: 6.51 µM"}
{"compound": "O=C(NC(=S)NNC(=O)c1cccs1)c1ccc(Br)o1", "Potency": "inconclusive: 29.1 µM [cytotoxic, single point]"}
{"compound": "COC(=O)C1=C(N)N(c2ccccc2F)C2=C(C(=O)CC(C)(C)C2)C1c1ccc(OC)c(OC)c1", "note": "(configuration not stated)", "Potency": "inconclusive: 14.6 µM [rising, partial curve]"}
{"compound": "Clc1ccc(-c2cc(C3CCNCC3)[nH]n2)c(Cl)c1", "Potency": "inconclusive: 29.1 µM [cytotoxic, single point]"}
{"compound": "Cc1ccccc1S(=O)(=O)Cc1ccc(C(=O)NC2CCCCC2)o1", "Potency": "inconclusive: 29.1 µM [cytotoxic, single point]"}
{"compound": "Cc1cc(-c2n[nH]c(=S)n2Cc2ccccc2)cs1", "Potency": "inactive"}
{"compound": "CC1CCCC(NC(=O)CCCCCn2c(=S)[nH]c3ccsc3c2=O)C1C", "note": "(configuration not stated)", "Potency": "inactive"}
{"compound": "CCO[C@@H]1OC(C(=O)N2CCN(Cc3ccccc3)CC2)=C[C@H](c2ccccc2)[C@H]1CCCO", "Potency": "inconclusive: 29.1 µM [cytotoxic, single point]"}
{"compound": "S=C(c1ccc2c(c1)OCO2)N1CCN(c2cccc(Cl)c2)CC1", "Potency": "active: 4.11 µM"}
{"compound": "O=S(=O)(NC1CCCCC1Nc1ccc(Cl)cc1)c1ccccc1", "note": "(configuration not stated)", "Potency": "inconclusive: 16.4 µM [cytotoxic, single point]"}
{"compound": "COc1ccc(-c2cc(C(=O)Nc3cccnc3)c3ccccc3n2)cc1OC", "Potency": "inconclusive: 3.66 µM [rising, full curve, poor fit]"}
{"compound": "CCCC1CCC(=NNC(=O)OC(C)(C)C)CC1", "note": "(configuration not stated)", "Potency": "inconclusive: 16.4 µM [rising, single point]"}
{"compound": "CC(C)CN(CC(C)C)C(=O)CN1C(=O)NC2(CCCc3ccccc32)C1=O", "note": "(configuration not stated)", "Potency": "inactive"}
{"compound": "COc1ccc(NC(=O)C2Cc3cccc(OC)c3O/C2=N\\O)cc1", "note": "(configuration not stated)", "Potency": "inconclusive: 29.1 µM [cytotoxic, single point]"}
{"compound": "Cc1csc(C(C#N)C(=O)c2cc3ccccc3o2)n1", "note": "(configuration not stated)", "Potency": "inconclusive: 20.6 µM [cytotoxic, partial curve, poor fit]"}
{"compound": "O=C(c1cccs1)N1CCc2c([nH]c3ccccc23)C1c1ccc(Cl)cc1", "note": "(configuration not stated)", "Potency": "active: 11.6 µM"}
{"compound": "Cc1cccc(N2CCN(C3=NC(=O)C(=C4CCCCC4)S3)CC2)c1", "Potency": "inconclusive: 7.94 µM [cytotoxic, partial curve, poor fit]"}
{"compound": "Cc1cc(C)n(C(C)CNS(=O)(=O)c2ccc(Cl)cc2)n1", "note": "(configuration not stated)", "Potency": "inconclusive: 29.1 µM [rising, single point]"}
{"compound": "COc1ccc2c(c1)[nH]c1c(N3CCN(Cc4ccc5c(c4)OCO5)CC3)ncnc12", "Potency": "inconclusive: 4.11 µM [cytotoxic, full curve, poor fit]"}
{"compound": "C[n+]1cccc(O)c1SCc1ccccc1", "Potency": "inactive"}
{"compound": "COc1ccccc1CNC(=O)c1ccc(N2CCCC2)c(NC(=O)NCCC(C)C)c1", "Potency": "inactive"}
{"compound": "COc1ccc(CNC(=O)C[C@H]2C[C@H](C(=O)N3CCCCC3)[C@@]3(C)c4[nH]c5ccc(Cl)cc5c4CCN3C2=O)cc1OC", "Potency": "inactive"}
{"compound": "Cc1ccc2c(c1)N(CC(=O)N1CCN(c3nc4ccccc4s3)CC1)C(=O)C(C)O2", "note": "(configuration not stated)", "Potency": "inconclusive: 1.64 µM [cytotoxic, full curve, poor fit]"}
{"compound": "Cc1oc2ncn(CC(C)C)c(=O)c2c1C(=O)NCCCN1CCCCC1", "Potency": "inactive"}
{"compound": "CN(C)c1ccc(/C=C/c2cc(N(C)C)nc3ccccc23)cc1", "Potency": "active: 0.58 µM"}
{"compound": "C=CCNC(=O)c1ccc(CN(c2ccc(OCC)cc2)S(=O)(=O)c2ccc(C)cc2)cc1", "Potency": "inconclusive: 29.1 µM [cytotoxic, single point]"}
{"compound": "O=C(NC(NC(=S)Nc1c(Cl)cccc1Cl)C(Cl)(Cl)Cl)c1cccc([N+](=O)[O-])c1", "note": "(configuration not stated)", "Potency": "inconclusive: 29.1 µM [cytotoxic, single point]"}
{"compound": "Cc1ccc(N/C(SCc2ccccc2C)=C(/C#N)C(=O)NCc2ccco2)cc1C", "Potency": "inconclusive: 13 µM [cytotoxic, partial curve]"}
{"compound": "CC(C)(C)c1ccc(C(=O)N2CCCN(c3ccc([N+](=O)[O-])cn3)CC2)cc1", "Potency": "inconclusive: 29.1 µM [cytotoxic, partial curve, poor fit]"}
{"compound": "C[C@@H]1CN([C@H](C)CO)C(=O)c2cc(NC(=O)Cc3cn(C)c4ccccc34)ccc2O[C@H]1CN(C)C(=O)Nc1ccc2c(c1)OCO2", "Potency": "inconclusive: 18.4 µM [rising, single point]"}
{"compound": "O=C(O)C1Nc2c(O)cccc2C2C=CCC12", "note": "(configuration not stated)", "Potency": "inconclusive: 25.9 µM [cytotoxic, single point]"}
